Binding data for one substance are collected here from paper PMC8042234.

The chains behind the UniProt entries cited, without tags or fusion partners.
UniProt Q86TM6: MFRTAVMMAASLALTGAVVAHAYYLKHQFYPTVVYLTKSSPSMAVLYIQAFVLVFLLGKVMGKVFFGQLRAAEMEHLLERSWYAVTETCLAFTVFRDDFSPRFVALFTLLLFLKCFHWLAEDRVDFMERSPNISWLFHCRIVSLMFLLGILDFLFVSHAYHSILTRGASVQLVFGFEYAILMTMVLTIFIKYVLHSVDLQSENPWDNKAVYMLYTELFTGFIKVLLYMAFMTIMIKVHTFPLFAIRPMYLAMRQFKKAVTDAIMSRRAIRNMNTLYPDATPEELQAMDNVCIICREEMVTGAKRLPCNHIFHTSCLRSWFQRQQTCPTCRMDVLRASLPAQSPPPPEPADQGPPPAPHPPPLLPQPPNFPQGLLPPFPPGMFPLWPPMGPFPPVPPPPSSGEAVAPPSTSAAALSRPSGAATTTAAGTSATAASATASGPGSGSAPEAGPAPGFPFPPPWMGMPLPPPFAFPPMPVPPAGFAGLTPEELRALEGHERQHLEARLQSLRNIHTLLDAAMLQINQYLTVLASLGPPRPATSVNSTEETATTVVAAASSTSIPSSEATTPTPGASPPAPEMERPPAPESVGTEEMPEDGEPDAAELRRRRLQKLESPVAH

The experiment has as its target T1, Flag-MTR4 (Mtr4 exosome RNA helicase) (UniProt P42285).
T1 sequence: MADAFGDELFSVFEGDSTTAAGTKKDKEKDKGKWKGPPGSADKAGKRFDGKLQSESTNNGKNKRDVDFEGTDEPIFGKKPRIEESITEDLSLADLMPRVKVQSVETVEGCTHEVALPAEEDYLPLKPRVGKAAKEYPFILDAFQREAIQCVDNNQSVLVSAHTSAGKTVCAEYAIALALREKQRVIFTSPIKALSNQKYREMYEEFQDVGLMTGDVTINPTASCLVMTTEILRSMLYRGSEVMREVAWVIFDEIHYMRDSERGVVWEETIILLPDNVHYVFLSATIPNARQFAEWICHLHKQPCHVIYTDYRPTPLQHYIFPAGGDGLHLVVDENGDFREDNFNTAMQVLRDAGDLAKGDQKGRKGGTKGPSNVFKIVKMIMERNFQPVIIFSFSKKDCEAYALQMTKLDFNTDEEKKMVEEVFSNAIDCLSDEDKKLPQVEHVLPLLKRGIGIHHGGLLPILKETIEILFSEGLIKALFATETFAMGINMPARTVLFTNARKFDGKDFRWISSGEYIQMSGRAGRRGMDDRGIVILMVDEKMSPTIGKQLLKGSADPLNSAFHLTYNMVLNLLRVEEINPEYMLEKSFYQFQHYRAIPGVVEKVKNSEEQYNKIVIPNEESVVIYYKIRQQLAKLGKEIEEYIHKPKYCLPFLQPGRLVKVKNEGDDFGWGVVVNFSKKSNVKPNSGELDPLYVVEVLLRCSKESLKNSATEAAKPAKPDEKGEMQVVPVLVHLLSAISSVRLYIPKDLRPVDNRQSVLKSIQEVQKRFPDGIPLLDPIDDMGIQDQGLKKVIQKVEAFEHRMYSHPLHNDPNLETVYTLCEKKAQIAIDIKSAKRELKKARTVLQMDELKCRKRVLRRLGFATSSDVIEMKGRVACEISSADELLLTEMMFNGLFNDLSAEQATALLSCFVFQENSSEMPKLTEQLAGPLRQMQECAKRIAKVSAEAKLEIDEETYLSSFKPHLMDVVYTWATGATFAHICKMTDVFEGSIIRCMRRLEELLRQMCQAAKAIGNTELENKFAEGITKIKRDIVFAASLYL
In words: co-IP; HEK293T cells co-transfected with Flag-MTR4 and SYVN1; extracts immunoprecipitated with anti-Flag treated protein A/G beads, immunoblotting; also after cultivation in methionine-restricted medium (MRM) for 24 h. In general terms: A western blot detects proteins with antibodies after separation by electrophoresis.

These are yes or no findings as the source states them, for the method shown. Binding seen in cells or lysates may run through a third protein. Some binding calls cover weakened binding; strength is not graded here. Tags and fused reporters may be left off the sequences shown.

For the substance “SYVN1 (E3 ubiquitin ligase) (from UniProt Q86TM6 1-617)”, the binding entry is “binds”.
